These are yes or no findings as the source states them, for the method shown. Some binding calls cover weakened binding; strength is not graded here.
Target: 6His-Gb1-STAT1 (710-750) (UniProt P42224)
Test: co-purification on Ni-NTA

Sequences of proteins named here, by UniProt entry; tags and fusion partners are left off. Residues count along the entry.
UniProt P42224, residues 710-750: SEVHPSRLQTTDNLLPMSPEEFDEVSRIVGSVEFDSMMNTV
UniProt P45481, residues 1764-1850: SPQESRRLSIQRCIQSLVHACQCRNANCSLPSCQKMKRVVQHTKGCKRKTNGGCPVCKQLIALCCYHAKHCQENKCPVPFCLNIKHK

binding: binds
Substance: TAZ2 domain of CBP, CBP (1764-1850) (from UniProt P45481 1764-1850) (domain or fragment)

— paper doi:10.1101/2020.12.12.422504
